Assay results from the supplement of paper PMC10689618.
The list shows a part of the results. Repeats are few or missing, and single values can be far off.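 Primary human fetal astrocytes engulfed labelled rat cortical synaptosomes, measured as a red/green ratio corrected for calcein live-cell signal and scaled to the plate median. Toxicity meant calcein falling over 30%; decreased phagocytosis meant below 70% of median above 5 µM.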

Experiments:
Human fetal astrocytes [1] = assay: loss of total cells relative to no-compound high-control median (toxicity); higher = more toxic (fewer cells); conditions: 24 h
Human fetal astrocytes [2] = assay: synaptosome phagocytosis (pHrodo/calcein intensity ratio) relative to plate median of data wells; higher = more phagocytosis; conditions: 24 h

Row | Structure (SMILES) | loss of total cells (Human fetal astrocytes [1]; 1.39 µM) | loss of total cells (Human fetal astrocytes [1]; 2.78 µM) | loss of total cells (Human fetal astrocytes [1]; 5.56 µM) | loss of total cells (Human fetal astrocytes [1]; 11.11 µM) | loss of total cells (Human fetal astrocytes [1]; 22.22 µM) | synaptosome phagocytosis (Human fetal astrocytes [2]; 1.39 µM) | synaptosome phagocytosis (Human fetal astrocytes [2]; 2.78 µM) | synaptosome phagocytosis (Human fetal astrocytes [2]; 5.56 µM) | synaptosome phagocytosis (Human fetal astrocytes [2]; 11.11 µM) | synaptosome phagocytosis (Human fetal astrocytes [2]; 22.22 µM)
1 | CC(=O)OCC(=O)[C@@]1(OC(C)=O)[C@@H](C)C[C@H]2[C@@H]3C[C@H](F)C4=CC(=O)C=C[C@]4(C)[C@@]3(F)[C@@H](O)C[C@@]21C | -9% | -10.5% | -2.9% | -11.3% | 6.8% | 84.1% | 90.6% | 94.1% | 98.9% | 124%
2 | CC1(C)O[C@@H]2C[C@H]3[C@@H]4CCC5=CC(=O)C=C[C@]5(C)[C@@]4(F)[C@@H](O)C[C@]3(C)[C@]2(C(=O)CO)O1 | -18.7% | -18% | -34.8% | -19.9% | -21.6% | 120% | 103% | 128% | 97.6% | 89.8%
3 | CN(C)CCC[C@@]1(c2ccc(F)cc2)OCc2cc(C#N)ccc21 | -38.7% | -31.7% | -8.7% | 12.1% | 2.8% | 89.2% | 75.9% | 94% | 106% | 97.3%
4 | COc1cc(O)c(C(C)=O)c(OC)c1 | -14.1% | 12% | -19.1% | -0.6% | -15.9% | 87.6% | 100% | 105% | 96.9% | 96.9%
5 | C[C@@]12C[C@@]3(O)O[C@@H](O1)[C@]1(COC(=O)c4ccccc4)[C@H]3C[C@@]12O[C@@H]1O[C@H](CO)[C@@H](O)[C@H](O)[C@H]1O | -11.5% | -1.8% | -18.3% | 14.2% | 4.4% | 88.5% | 104% | 71.1% | 120% | 119%
6 | COc1cc(OC)c2c(c1Cl)O[C@@]1(C(=O)CC(=O)C[C@H]1C)C2=O | -6.9% | 4.7% | -12.2% | -9.7% | -16.7% | 113% | 106% | 110% | 87.4% | 112%
7 | O=C(O)c1cc(=O)c2cccc(O)c2[nH]1 | 13.4% | 13.4% | 1.4% | 0.4% | 24.2% | 93.2% | 87.3% | 134% | 107% | 146%
8 | COc1ccc(-c2oc3cc(OC)c(OC)c(OC)c3c(=O)c2OC)cc1 | -15.6% | 2.5% | -5.9% | 18.2% | 11.1% | 102% | 136% | 145% | 90.7% | 101%
9 | Nc1ccc(S(=O)(=O)Nc2ccccn2)cc1 | 8.6% | -26.1% | -14.6% | -0.3% | -19.8% | 126% | 131% | 80.5% | 113% | 101%
10 | CCCC(=O)Nc1ccc(OCC(O)CNC(C)C)c(C(C)=O)c1 (stereo not given) | 0% | -5.2% | 13.5% | 8.6% | 18.7% | 130% | 110% | 99.5% | 117% | 107%
11 | CC(C(=O)O)c1cccc(Oc2ccccc2)c1 (stereo not given) | -14.9% | -10.1% | 12.9% | 3.9% | 13% | 102% | 96% | 100% | 93.1% | 99.8%
12 | Nc1c2ccccc2nc2ccccc12 | 0.9% | -11.9% | -8.4% | 27.4% | 0.9% | 116% | 104% | 95.5% | 71.7% | 63.2%
13 | CC(CN(C)C)CN1c2ccccc2Sc2ccccc21 (stereo not given) | -19.3% | -22% | -20.9% | 4.3% | 44.1% | 91.9% | 76.9% | 67.5% | 44.1% | 55.5%
14 | Cc1c(N(C)C)c(=O)n(-c2ccccc2)n1C | 22.7% | 9% | 0% | 1.3% | 7.6% | 110% | 73.2% | 110% | 88.6% | 93.2%
15 | NCCCC(O)(P(=O)(O)O)P(=O)(O)O | -56.5% | -42.9% | 6.8% | 37% | 0.9% | 93.2% | 117% | 125% | 140% | 124%
16 | CC[C@]1(O)C[C@@H]2CN(CCc3c([nH]c4ccccc34)[C@@](C(=O)OC)(c3cc4c(cc3OC)N(C)[C@H]3[C@@](O)(C(=O)OC)[C@H](OC(C)=O)[C@]5(CC)C=CCN6CC[C@]43[C@@H]65)C2)C1 | -5.8% | 28.4% | 27.9% | 18.8% | 23.2% | 90.6% | 127% | 80.4% | 99.7% | 95.3%
17 | COC(=O)c1c(OC)cc2c(c1C)Oc1c(Cl)c(O)c(Cl)c(C)c1C(=O)O2 | -8.3% | 0.7% | 13% | 18.1% | 1.1% | 84.5% | 102% | 141% | 103% | 64%
18 | COc1ccc2c(c1)OC/C(=C\c1ccc(OC)c(O)c1)C2=O | -19.2% | -10% | 32.8% | 11.6% | 27.8% | 86.9% | 111% | 130% | 83.4% | 85.9%
19 | CCN(CC)CCOCCOC(=O)C(CC)(CC)c1ccccc1 | 10.5% | 13.4% | 18.8% | 8.8% | 28% | 108% | 98.5% | 86% | 98.2% | 90.7%

Numbers 9 to 19 from above:
Row | Structure (SMILES) | loss of total cells (Human fetal astrocytes [1]; 1.39 µM) | loss of total cells (Human fetal astrocytes [1]; 2.78 µM) | loss of total cells (Human fetal astrocytes [1]; 5.56 µM) | loss of total cells (Human fetal astrocytes [1]; 11.11 µM) | loss of total cells (Human fetal astrocytes [1]; 22.22 µM) | synaptosome phagocytosis (Human fetal astrocytes [2]; 1.39 µM) | synaptosome phagocytosis (Human fetal astrocytes [2]; 2.78 µM) | synaptosome phagocytosis (Human fetal astrocytes [2]; 5.56 µM) | synaptosome phagocytosis (Human fetal astrocytes [2]; 11.11 µM) | synaptosome phagocytosis (Human fetal astrocytes [2]; 22.22 µM)
9 | Nc1ccc(S(=O)(=O)Nc2ccccn2)cc1 | 8.6% | -26.1% | -14.6% | -0.3% | -19.8% | 126% | 131% | 80.5% | 113% | 101%
10 | CCCC(=O)Nc1ccc(OCC(O)CNC(C)C)c(C(C)=O)c1 (stereo not given) | 0% | -5.2% | 13.5% | 8.6% | 18.7% | 130% | 110% | 99.5% | 117% | 107%
11 | CC(C(=O)O)c1cccc(Oc2ccccc2)c1 (stereo not given) | -14.9% | -10.1% | 12.9% | 3.9% | 13% | 102% | 96% | 100% | 93.1% | 99.8%
12 | Nc1c2ccccc2nc2ccccc12 | 0.9% | -11.9% | -8.4% | 27.4% | 0.9% | 116% | 104% | 95.5% | 71.7% | 63.2%
13 | CC(CN(C)C)CN1c2ccccc2Sc2ccccc21 (stereo not given) | -19.3% | -22% | -20.9% | 4.3% | 44.1% | 91.9% | 76.9% | 67.5% | 44.1% | 55.5%
14 | Cc1c(N(C)C)c(=O)n(-c2ccccc2)n1C | 22.7% | 9% | 0% | 1.3% | 7.6% | 110% | 73.2% | 110% | 88.6% | 93.2%
15 | NCCCC(O)(P(=O)(O)O)P(=O)(O)O | -56.5% | -42.9% | 6.8% | 37% | 0.9% | 93.2% | 117% | 125% | 140% | 124%
16 | CC[C@]1(O)C[C@@H]2CN(CCc3c([nH]c4ccccc34)[C@@](C(=O)OC)(c3cc4c(cc3OC)N(C)[C@H]3[C@@](O)(C(=O)OC)[C@H](OC(C)=O)[C@]5(CC)C=CCN6CC[C@]43[C@@H]65)C2)C1 | -5.8% | 28.4% | 27.9% | 18.8% | 23.2% | 90.6% | 127% | 80.4% | 99.7% | 95.3%
17 | COC(=O)c1c(OC)cc2c(c1C)Oc1c(Cl)c(O)c(Cl)c(C)c1C(=O)O2 | -8.3% | 0.7% | 13% | 18.1% | 1.1% | 84.5% | 102% | 141% | 103% | 64%
18 | COc1ccc2c(c1)OC/C(=C\c1ccc(OC)c(O)c1)C2=O | -19.2% | -10% | 32.8% | 11.6% | 27.8% | 86.9% | 111% | 130% | 83.4% | 85.9%
19 | CCN(CC)CCOCCOC(=O)C(CC)(CC)c1ccccc1 | 10.5% | 13.4% | 18.8% | 8.8% | 28% | 108% | 98.5% | 86% | 98.2% | 90.7%

The list goes on:

Row | Structure (SMILES) | loss of total cells (Human fetal astrocytes [1]; 1.39 µM) | loss of total cells (Human fetal astrocytes [1]; 2.78 µM) | loss of total cells (Human fetal astrocytes [1]; 5.56 µM) | loss of total cells (Human fetal astrocytes [1]; 11.11 µM) | loss of total cells (Human fetal astrocytes [1]; 22.22 µM) | synaptosome phagocytosis (Human fetal astrocytes [2]; 1.39 µM) | synaptosome phagocytosis (Human fetal astrocytes [2]; 2.78 µM) | synaptosome phagocytosis (Human fetal astrocytes [2]; 5.56 µM) | synaptosome phagocytosis (Human fetal astrocytes [2]; 11.11 µM) | synaptosome phagocytosis (Human fetal astrocytes [2]; 22.22 µM)
20 | CCN(CC)C(=O)N1CCN(C)CC1 | -10.4% | -24.7% | -16.7% | 4.3% | -42.2% | 127% | 82.7% | 99.7% | 79.6% | 78.8%
21 | Cc1ccc(C)c(OCCCC(C)(C)C(=O)O)c1 | 2.7% | -24.1% | -9.8% | -9.5% | -15.5% | 102% | 108% | 125% | 110% | 98.2%
22 | CCOC(=O)CCCCCCCCCCCCC1C=CCC1 (stereo not given) | -4.9% | -3.2% | 8.8% | 24.3% | 13.3% | 122% | 102% | 126% | 151% | 118%
23 | NNC(=O)c1ccncc1 | 6.8% | -33.6% | -9.8% | 2.6% | -20.4% | 110% | 127% | 112% | 92.6% | 98.9%
24 | CC(=O)NS(=O)(=O)c1ccc(N)cc1 | 6.2% | -24.1% | -15.3% | -7.8% | 24.6% | 118% | 128% | 110% | 108% | 125%
25 | Cc1c(Cl)cccc1Nc1ccccc1C(=O)O | 22.7% | 17% | 17.4% | 18% | 10.6% | 144% | 114% | 118% | 128% | 123%
26 | CCCc1ncc(C[n+]2ccccc2C)c(N)n1 | -14.9% | -30.8% | 3.9% | 1.6% | 6.2% | 116% | 117% | 99.6% | 113% | 84.2%
27 | C[C@@H]1CC[C@H]2C(C)(C)[C@H]3C[C@@]12CC[C@@]3(C)O | 6.1% | 23.5% | 15.9% | 12.1% | 0% | 106% | 138% | 140% | 100% | 144%
28 | COC(=O)c1c(C)cc(OC(=O)c2c(C)cc(O)c(C=O)c2O)c(C)c1O | -12% | -3.3% | 5.3% | -18.7% | -6.3% | 129% | 84.3% | 117% | 76.3% | 112%
29 | C[C@]12CC[C@@H](O)C[C@H]1CCc1ccccc12 [3alpha-HYDROXY-4,4-BISNOR-8,11,13-PODOCARPATRIENE] | 10.5% | -3.3% | -13% | 38.7% | 4.1% | 97.5% | 81.3% | 72.6% | 91.7% | 64.2%
30 | Cn1nnnc1SCC1=C(C(=O)O)N2C(=O)[C@@H](NC(=O)[C@H](O)c3ccccc3)[C@H]2SC1 | 1.7% | 0.3% | 5.7% | 3.1% | 11.9% | 115% | 132% | 113% | 104% | 106%
31 | O=c1cc(-c2ccccc2)oc2cc(O)c(O)c(O)c12 | 4.9% | 19.9% | 13.2% | 50% | 43.7% | 94.3% | 109% | 89.9% | 117% | 68.6%
32 | CO[C@H]1C[C@H](O[C@@H]2/C(C)=C/C[C@@H]3C[C@@H](C[C@]4(CC[C@H](C)[C@@H](C5CCCCC5)O4)O3)OC(=O)[C@@H]3C=C(C)/C(=N/O)[C@H]4OC/C(=C\C=C\[C@@H]2C)[C@]43O)O[C@@H](C)[C@@H]1O | -29% | -42.1% | 8.7% | 56.1% | 40.8% | 82.1% | 72.3% | 63.4% | 16.3% | 36.1%
33 | COc1cccc(O)c1O | 17.7% | 24.9% | 36.2% | 53.1% | 63.6% | 93.5% | 119% | 108% | 115% | 59.1%
34 | CC(=O)O[C@H]1C[C@@H](OC(C)=O)C(C)(C)[C@@H]2C[C@@H](OC(C)=O)[C@]3(C)[C@H](CC[C@@]4(C)[C@H](c5ccoc5)OC(=O)[C@H]5O[C@@]534)[C@@]12C | -5.4% | -3.3% | 13.7% | 1.3% | 13.7% | 4.3% | 11.9% | 17.7% | 11.9% | 24.4%
35 | CC(C)=CCC/C(C)=C/CC/C(C)=C/CC/C(C)=C/CC/C(C)=C/CC/C(C)=C/CC/C(C)=C/CC/C(C)=C/CC/C(C)=C/CO | -4.1% | 2.5% | -7.3% | 28.4% | 18.5% | 146% | 127% | 147% | 118% | 156%
36 | CC1(C)C(O[C@@H]2OC[C@@H](O)[C@H](O)[C@H]2O)CC[C@]23CC24CC[C@]2(C)[C@@H]([C@@]5(C)CC[C@@H](C(C)(C)O)O5)[C@H](O)C[C@@]2(C)C4C[C@@H](O[C@@H]2O[C@H](CO)[C@@H](O)[C@H](O)[C@H]2O)C13 (stereo not given in full) | -26.2% | 7.6% | -6.6% | 8.1% | 10.4% | 78% | 112% | 116% | 81.6% | 106%
37 | COC1=C[C@@H](C)[C@@H]2C[C@H]3OC(=O)C[C@H]4C(C)=C(OC)C(=O)[C@H]([C@@]2(C)C1=O)[C@@]34C | -21.3% | -5.4% | -13.2% | 14.2% | 4.4% | 91.9% | 97% | 98.4% | 103% | 159%
38 | CCCCCCCCCCCCCCCCCCOCC(O)CO (stereo not given) | -31.1% | 6.9% | -9.5% | 5.4% | -7.4% | 96.3% | 117% | 91.7% | 160% | 111%
